Test results: publication PMC12677500

Chains of the proteins cited; added tags and fusions are not shown.
UniProt Q9UNE7: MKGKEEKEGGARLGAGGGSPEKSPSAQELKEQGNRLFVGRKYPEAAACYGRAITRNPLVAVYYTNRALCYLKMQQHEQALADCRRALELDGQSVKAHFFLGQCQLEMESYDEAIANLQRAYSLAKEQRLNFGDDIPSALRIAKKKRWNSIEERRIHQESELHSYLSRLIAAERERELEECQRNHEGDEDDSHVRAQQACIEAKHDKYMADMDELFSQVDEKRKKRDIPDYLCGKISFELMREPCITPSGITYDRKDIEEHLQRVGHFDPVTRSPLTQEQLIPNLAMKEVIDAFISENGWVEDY

Biological target: T1, ARCN1-Myc (archain 1, δ subunit of coat protein complex I) (human) (UniProt P48444)
T1 sequence: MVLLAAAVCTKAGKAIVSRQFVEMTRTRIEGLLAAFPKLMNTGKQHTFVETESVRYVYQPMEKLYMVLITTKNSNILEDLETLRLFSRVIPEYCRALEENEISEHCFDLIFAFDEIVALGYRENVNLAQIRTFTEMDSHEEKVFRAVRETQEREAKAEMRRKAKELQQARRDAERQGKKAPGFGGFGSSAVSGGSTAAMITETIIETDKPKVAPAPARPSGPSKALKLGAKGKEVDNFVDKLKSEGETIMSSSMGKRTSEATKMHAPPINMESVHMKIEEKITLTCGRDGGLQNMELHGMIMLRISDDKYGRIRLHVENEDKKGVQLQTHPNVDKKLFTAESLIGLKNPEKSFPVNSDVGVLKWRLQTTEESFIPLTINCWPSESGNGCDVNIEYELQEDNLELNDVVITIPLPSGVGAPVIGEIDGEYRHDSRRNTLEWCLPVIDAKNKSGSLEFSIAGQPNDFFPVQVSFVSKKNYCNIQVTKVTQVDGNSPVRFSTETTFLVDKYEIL
Test: affinity purification with mass spectrometry; Myc-tagged ARCN1 immunoprecipitated from transfected HEK293T cells (MG132 10 μM for 12 h) and analysed by mass spectrometry for endogenous E3 ubiquitin ligases

endogenous STUB1 of HEK293T cells (from UniProt Q9UNE7 1-303)
binding: binds

Results are given in words; binding and its absence hold for the method and conditions named. In cells and extracts the contact can be indirect. Here binding means that the protein was enriched with, or labelled near, the bait; the list need not be complete. Sequences can lack the tags named with a protein.
